Results taken from PubChem BioAssay AID743255 (National Center for Advancing Translational Sciences (NCATS), 2014).
The campaign covered roughly 390,000 compounds. About 910 (0.23%) were called active. This list was built around the results that the source calls inconclusive (neither active nor inactive); the mix of calls is not that of the screen. Calls come from the whole dose curve; as a rule, active = well fitted inhibition curve with a large enough effect; inconclusive = small, poorly fitted or top-dose-only effect; inactive = no such curve, though single readings can be large or run the other way. Potencies of inconclusive entries are doubtful fits and often do not repeat.

Amino acid sequences for entries named in this document (tags omitted). A change or cut given only in a name is not applied to a line headed by its entry.
UniProt O94782: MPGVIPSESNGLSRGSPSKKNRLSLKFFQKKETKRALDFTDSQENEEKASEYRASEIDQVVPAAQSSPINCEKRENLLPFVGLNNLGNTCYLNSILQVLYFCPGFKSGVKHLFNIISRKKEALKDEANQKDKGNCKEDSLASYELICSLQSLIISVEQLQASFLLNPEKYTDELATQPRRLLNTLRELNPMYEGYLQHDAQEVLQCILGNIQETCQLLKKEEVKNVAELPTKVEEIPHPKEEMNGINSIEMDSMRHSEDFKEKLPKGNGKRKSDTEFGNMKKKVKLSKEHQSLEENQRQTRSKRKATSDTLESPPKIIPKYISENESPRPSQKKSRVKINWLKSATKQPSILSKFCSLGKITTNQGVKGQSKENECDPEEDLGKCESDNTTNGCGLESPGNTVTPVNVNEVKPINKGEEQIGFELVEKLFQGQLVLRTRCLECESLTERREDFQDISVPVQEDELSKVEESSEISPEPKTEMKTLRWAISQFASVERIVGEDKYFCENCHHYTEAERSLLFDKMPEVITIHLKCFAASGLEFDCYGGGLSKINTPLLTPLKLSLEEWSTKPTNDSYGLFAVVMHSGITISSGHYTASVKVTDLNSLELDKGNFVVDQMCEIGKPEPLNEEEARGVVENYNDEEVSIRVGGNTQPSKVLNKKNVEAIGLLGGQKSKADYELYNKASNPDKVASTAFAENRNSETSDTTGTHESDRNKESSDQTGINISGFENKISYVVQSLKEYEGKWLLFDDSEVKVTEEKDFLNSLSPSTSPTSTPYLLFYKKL

Each compound was assayed against Ubiquitin carboxyl-terminal hydrolase 1 (Homo sapiens) (UniProt O94782) (assay: Inhibitors of USP1/UAF1: Primary Screen). Conditions: recombinant USP1/UAF1, Ub-Rhodamine cleavage fluorescence; activity change, negative = inhibition: at 57.1 µM (top of the series).
Method in brief: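 USP1/UAF1 complex (1 nM) preincubated 15 min at room temperature with compound, then Ub-Rho substrate (150 nM final) added. Kinetic fluorescence at 480/540 nm over 6 reads at 60 s intervals; 50 mM HEPES pH 7.8, 0.5 mM EDTA, 0.1 mg/ml BSA, 1 mM TCEP, 0.01% Tween-20.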
% is set by controls: 0 for no effect and ±100 for the full control effect; potency is the fitted concentration of half-maximal effect.
Note: nearly all actives have a fitted effect of over 60% in size.

Row | SMILES | Potency | activity change, negative = inhibition
1 | C(#Cc1ccc2c(c1)COc1c3ccccc3nn1-2)c1ccccc1 | inconclusive: 28.2 µM [inhibitor, partial curve] | –
2 | Cc1c(C(=O)NCC2COc3ccccc3O2)oc2ccc(S(=O)(=O)N(C)C3CCCCC3)cc12 (stereo not given) | inconclusive: 0.631 µM [inhibitor, full curve, poor fit] | –
3 | CSC1=NC2(CCCCC2)C2=C(CCCC2)N1 | inconclusive: 0.447 µM [inhibitor, partial curve, poor fit] | –
4 | CC(C)(C)[C@@H]1CCC(=O)N(CC[C@H](Sc2ccc(Br)cc2)c2ccccc2)CC1 | inconclusive: 79.4 µM [inhibitor, partial curve, poor fit] | –
5 | COc1ccc(Cl)cc1NC(=O)C1CCCN(S(=O)(=O)c2ccc3c(c2)CCCC(=O)N3)C1 (stereo not given) | inconclusive: 31.6 µM [inhibitor, partial curve, poor fit] | –
6 | CC(=O)Nc1ccc(N2C(C(C)=O)=NN(c3ccccc3)C2c2cccs2)cc1 (stereo not given) | – | inactive: -20.2%
7 | COCCCNC(=O)Cn1nnc(-c2ccc(NC(=O)c3ccccc3OC)cc2)n1 | inconclusive: 35.5 µM [inhibitor, single point] | –
8 | COC(=O)c1ccccc1NC(=O)Cn1nc(C)c2nn(-c3ccc(Cl)cc3)c(C)c2c1=O | inconclusive: 10 µM [inhibitor, partial curve, poor fit] | –
9 | CCCn1c2ccccc2c2cnn(CC(=O)Nc3ccccc3OC)c(=O)c21 | – | inactive: 1.78%
10 | COc1ccc(NC(=O)C(c2ccc(OC)cc2)N(C)C(=O)Cc2cccs2)cc1 (stereo not given) | inactive | –
11 | Cc1[nH]n(C(N)=S)c(=O)c1N=Nc1ccc2ccccc2c1 | – | inactive: -12.2%
12 | CN(C)c1ccc(/C=C/C(=O)c2cccnc2)cc1 | active: 28.2 µM | –
13 | Cc1ccc(C2OC(=O)c3ccccc32)cc1 (stereo not given) | inconclusive: 35.5 µM [inhibitor, partial curve] | –
14 | Cc1nn(CC(=O)Nc2ccc(C(C)C)cc2)c(=O)c2c(C)n(-c3ccc(Cl)cc3)nc12 | inconclusive: 0.708 µM [inhibitor, full curve, poor fit] | –
15 | COc1ccc(NC(=O)CSc2nccn2C2CCCC2)cc1OC | inconclusive: 2.24 µM [inhibitor, partial curve] | –
16 | CCCn1c(=O)c(C(=O)N/N=C/c2ccccc2F)c(O)c2ccccc21 | inconclusive: 7.08 µM [inhibitor, partial curve, poor fit] | –
17 | C/C(=N\Nc1cccc2cccnc12)c1ccc(N)cc1 | inconclusive: 3.55 µM [inhibitor, full curve] | –
18 | COc1cccc(-c2c(-c3cc(OC)cc(OC)c3)n(C)c3ccc(-c4ccc5cc[nH]c5c4)cc23)c1 | inconclusive: 6.31 µM [inhibitor, single point] | –
19 | O=C(Nc1ccccc1)NN(C(=O)CCl)c1ccccc1 | inconclusive: 5.01 µM [inhibitor, full curve] | –
20 | CC(=O)N1CCN(C(=O)c2ccco2)CC1 | inconclusive: 31.6 µM [inhibitor, single point] | –

Row | SMILES | Potency | activity change, negative = inhibition
21 | CC(=O)N1CCc2c(sc(NC(=O)c3ccc([N+](=O)[O-])o3)c2C#N)C1 | – | inactive: -17.1%
22 | COc1ccc2cc(CCC(C)=O)ccc2c1 | inconclusive: 50.1 µM [inhibitor, partial curve, poor fit] | –
23 | CC(Oc1ccccc1)C(=O)N=C1SC2CS(=O)(=O)CC2N1Cc1ccc(F)cc1 (stereo not given) | inconclusive: 15.8 µM [inhibitor, partial curve, poor fit] | –
24 | COc1cccc(OC)c1-c1nn2c(-c3cc(-c4ccccc4)n[nH]3)nnc2s1 | inconclusive: 17.8 µM [inhibitor, partial curve] | –
25 | Cc1ccc2oc(=O)c(/C=C(\O)c3sc(C)nc3C)nc2c1 | inconclusive: 35.5 µM [inhibitor, partial curve] | –
26 | O=C(CC1(CC(=O)N2CCOCC2)CCCC1)Nc1ccc(F)cc1 | inconclusive: 50.1 µM [inhibitor, single point] | –
27 | CCc1ccc(-n2c(=O)c3c4c(sc3n(Cc3ccc(F)cc3)c2=O)CCCC4)cc1 | inconclusive: 0.891 µM [inhibitor, partial curve, poor fit] | –
28 | CN1CCN(c2ccc(NC(=O)c3ccc(-c4ccc(Cl)cc4)o3)cc2)CC1 | inconclusive: 39.8 µM [inhibitor, partial curve] | –
29 | Cc1ccc(S(=O)(=O)N2CCOCC2)cc1NC(=O)COC(=O)Cc1ccccc1 | inconclusive: 100 µM [inhibitor, partial curve, poor fit] | –
30 | CCCN(CCC)C(=O)Cn1c(=O)n(-c2cccc(C(F)(F)F)c2)c(=O)c2c(C)c(C)sc21 | inconclusive: 50.1 µM [inhibitor, single point] | –
31 | O=C(Cn1c(=O)n(Cc2ccco2)c(=O)c2cccnc21)Nc1ccccc1F | – | inactive: -14.4%
32 | S=c1[nH]c2cc(Cl)ccc2s1 | – | inconclusive: -32.4% [inhibitor]
33 | CC(=O)c1cc(NC(=O)c2ccccc2)c(=O)oc1/C=C/N(C)C | inconclusive: 31.6 µM [inhibitor, partial curve] | –
34 | CC(C)(C)c1ccc(O)c(N=Cc2cc(Br)ccc2O)c1 | inconclusive: 39.8 µM [inhibitor, partial curve] | –
35 | CCCCCCOc1ccc(OC(=O)c2cccnc2)cc1 | inconclusive: 31.6 µM [inhibitor, partial curve] | –
36 | COc1cc(CNCc2ccccn2)ccc1OCc1c(Cl)cccc1Cl | – | inactive: -2.56%
37 | CC(=O)c1cc(NC(=O)c2cccc(C(F)(F)F)c2)c(=O)oc1/C=C/N(C)C | inconclusive: 2.82 µM [inhibitor, full curve] | –
38 | C/C(=C\C(=O)c1ccc(Br)cc1)NCc1ccc2c(c1)OCO2 | – | inactive: -7.14%
39 | COc1cc(OC)cc(-c2c(-c3cccs3)c3cc(-c4ccc(N(C)C)nc4)ccc3n2C)c1 | inconclusive: 79.4 µM [inhibitor, partial curve, poor fit] | –
40 | O=C1NC(c2ccc(-c3ccccc3[N+](=O)[O-])o2)C(C(=O)c2ccc(F)cc2)C(O)(C(F)(F)F)N1 (stereo not given) | inconclusive: 39.8 µM [inhibitor, partial curve, poor fit] | –

Some of the entries so far, as a markdown table:

| Row | SMILES | Potency | activity change, negative = inhibition |
| --- | --- | --- | --- |
| 29 | Cc1ccc(S(=O)(=O)N2CCOCC2)cc1NC(=O)COC(=O)Cc1ccccc1 | inconclusive: 100 µM [inhibitor, partial curve, poor fit] | – |
| 30 | CCCN(CCC)C(=O)Cn1c(=O)n(-c2cccc(C(F)(F)F)c2)c(=O)c2c(C)c(C)sc21 | inconclusive: 50.1 µM [inhibitor, single point] | – |
| 31 | O=C(Cn1c(=O)n(Cc2ccco2)c(=O)c2cccnc21)Nc1ccccc1F | – | inactive: -14.4% |
| 32 | S=c1[nH]c2cc(Cl)ccc2s1 | – | inconclusive: -32.4% [inhibitor] |
| 33 | CC(=O)c1cc(NC(=O)c2ccccc2)c(=O)oc1/C=C/N(C)C | inconclusive: 31.6 µM [inhibitor, partial curve] | – |
| 34 | CC(C)(C)c1ccc(O)c(N=Cc2cc(Br)ccc2O)c1 | inconclusive: 39.8 µM [inhibitor, partial curve] | – |
| 35 | CCCCCCOc1ccc(OC(=O)c2cccnc2)cc1 | inconclusive: 31.6 µM [inhibitor, partial curve] | – |
| 36 | COc1cc(CNCc2ccccn2)ccc1OCc1c(Cl)cccc1Cl | – | inactive: -2.56% |
| 37 | CC(=O)c1cc(NC(=O)c2cccc(C(F)(F)F)c2)c(=O)oc1/C=C/N(C)C | inconclusive: 2.82 µM [inhibitor, full curve] | – |
| 38 | C/C(=C\C(=O)c1ccc(Br)cc1)NCc1ccc2c(c1)OCO2 | – | inactive: -7.14% |
| 39 | COc1cc(OC)cc(-c2c(-c3cccs3)c3cc(-c4ccc(N(C)C)nc4)ccc3n2C)c1 | inconclusive: 79.4 µM [inhibitor, partial curve, poor fit] | – |
| 40 | O=C1NC(c2ccc(-c3ccccc3[N+](=O)[O-])o2)C(C(=O)c2ccc(F)cc2)C(O)(C(F)(F)F)N1 (stereo not given) | inconclusive: 39.8 µM [inhibitor, partial curve, poor fit] | – |
